Some results were stated once for a whole list of compounds, not compound by compound. At least one compound was matched to its structure with a doubt left.
Test system: primary cultures of neonatal cortical neurons exposed to 5 μM Aβ25-35
Assay: Protection of cortical neurons against Aβ25-35-induced cell death (MTT reduction analysis)
Type: cell-based, rat
Settings: 1-20 μM; 5 μM Aβ
Procedure: In this study, primary cultures of neonatal cortical neurons from the cerebral cortex of Harlan Sprague-Dawley rat pups at postnatal day were used as target cells. Primary cultures of neonatal cortical neurons were prepared from the cerebral cortex of Harlan Sprague-Dawley rat pups at postnatal day 1. Briefly, each pup was decapitated and the cortex was digested in 0.5 mg/mL papain at 37° C. for 15 min. The tissue was dissociated in Hibernate A medium (containing B27 supplement) by aspirating trituration to separate cells. […]
The effects of isolated pure compounds on Aβ25-35-treated cell apoptosis were determined by a MTT method for evaluating neuroprotective activity. The mitochondrial dehydrogenase activity was assayed by reduction cleavage of the tetrazolium salt MTT (3-[4,5-dimethylthiazol-2-yl]-2,5-diphenyltetrazolium bromide), to yield a purple dye with absorbance read at about 570 nm. Results are expressed as percentage of control absorbance. […] The cell viability was assessed by MTT reduction analysis. […] The absorbance at 600 nm was measured using an enzyme-linked immunosorbent assay reader. Results are expressed as means±S.D. and were analyzed by ANOVA with post hoc multiple comparison with a Bonferroni test.

SMILES | effect on Aβ-induced neurotoxicity
C=C1CC[C@@H]2[C@](C)(CC[C@H](O)[C@]2(C)CO)[C@H]1/C=C/[C@@H]1CCOC1=O [Compound 2, 3β,19-dihydroxylabda-8(17), 11E-dien-16,15-olide] | reduced Aβ-induced neurotoxicity in a concentration-dependent manner
C=C1CC[C@@H]2[C@](C)(CC[C@H](O)[C@]2(C)CO)[C@H]1/C=C/C1CCOC1=O (stereo partly drawn) [Compound 3, 13-epi-3β,19-dihydroxylabda-8(17), 11E-dien-16,15-olide] | reduced Aβ-induced neurotoxicity in a concentration-dependent manner

— patent US7745647B2, “Diterpenes from the fruiting body of Antrodia camphorata and pharmaceutical compositions thereof” (Kang Jian Biotech Corp, Ltd., priority 2006, dated 2010)
